In publication PMC4403447 one finds binding data, which are given here for two molecules.

The chains behind the UniProt entries cited, without tags or fusion partners.
UniProt P10591: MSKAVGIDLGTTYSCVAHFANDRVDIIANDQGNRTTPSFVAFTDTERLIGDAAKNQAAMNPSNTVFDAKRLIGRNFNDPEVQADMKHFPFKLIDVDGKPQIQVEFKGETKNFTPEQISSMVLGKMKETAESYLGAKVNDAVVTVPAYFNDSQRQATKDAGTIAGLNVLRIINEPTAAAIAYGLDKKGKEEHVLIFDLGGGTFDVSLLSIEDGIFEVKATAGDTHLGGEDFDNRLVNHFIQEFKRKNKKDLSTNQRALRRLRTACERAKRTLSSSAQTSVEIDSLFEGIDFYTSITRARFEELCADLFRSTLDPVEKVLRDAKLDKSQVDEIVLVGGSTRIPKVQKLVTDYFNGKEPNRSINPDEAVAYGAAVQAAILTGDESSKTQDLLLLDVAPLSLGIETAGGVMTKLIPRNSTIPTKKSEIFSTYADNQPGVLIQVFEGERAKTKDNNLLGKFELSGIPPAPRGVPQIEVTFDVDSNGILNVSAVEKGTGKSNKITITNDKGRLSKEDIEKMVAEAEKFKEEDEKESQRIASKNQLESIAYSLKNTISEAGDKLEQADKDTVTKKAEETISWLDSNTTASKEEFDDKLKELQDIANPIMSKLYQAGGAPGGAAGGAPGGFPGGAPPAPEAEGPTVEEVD

Results are given in words; binding and its absence hold for the method and conditions named. Some entries that bind do so weakly or less than the wild type.

The target of assay [1] is yHsp70 (Ssa1) (yeast) (UniProt P10591). As to the kind of experiment: SAXS; mixtures of a Sti1 variant and Hsp70 at 1:1 and 1:2; solute 1 to 10 mg/ml; in-house SAXSess mc2; masses from I(0); both purified.
Assay [2] has the same target. The assay is described as follows: SPR; Hsp70 amine-coupled to a CM5 chip, Sti1 variants as analyte; 40 mM Hepes pH 7.5, 20 mM KCl, 5 mM MgCl2, 0.005% Tween; 10 μl/min; 20 °C; Langmuir isotherm; affinities shown normalized to wild-type Sti1; both purified.
In assay [3] the target is Sti1 (stress-inducible protein 1), wild type (S. cerevisiae) (UniProt P15705). As to the kind of experiment: AUC; sedimentation of Sti1 or Sti1 Δlinker alone, absorbance optics at 280 nm, c(S) module of UltraScan; both purified.

B1: Sti1 TPR2B (domain or fragment, UniProt P15705 395-518)
chain: KAEEARLEGKEYFTKSDWPNAVKAYTEMIKRAPEDARGYSNRAAALAKLMSFPEAIADCNKAIEKDPNFVRAYIRKATAQIAVKEYASALETLDAARTKDAEVNNGSSAREIDQLYYKASQQRF
Take B1: the binding result with yHsp70 (Ssa1) (yeast) [1] and with yHsp70 (Ssa1) (yeast) [2] was “binds” in each case.

B2: Sti1 (stress-inducible protein 1), wild type (protein, UniProt P15705 1-589)
chain: MSLTADEYKQQGNAAFTAKDYDKAIELFTKAIEVSETPNHVLYSNRSACYTSLKKFSDALNDANECVKINPSWSKGYNRLGAAHLGLGDLDEAESNYKKALELDASNKAAKEGLDQVHRTQQARQAQPDLGLTQLFADPNLIENLKKNPKTSEMMKDPQLVAKLIGYKQNPQAIGQDLFTDPRLMTIMATLMGVDLNMDDINQSNSMPKEPETSKSTEQKKDAEPQSDSTTSKENSSKAPQKEESKESEPMEVDEDDSKIEADKEKAEGNKFYKARQFDEAIEHYNKAWELHKDITYLNNRAAAEYEKGEYETAISTLNDAVEQGREMRADYKVISKSFARIGNAYHKLGDLKKTIEYYQKSLTEHRTADILTKLRNAEKELKKAEAEAYVNPEKAEEARLEGKEYFTKSDWPNAVKAYTEMIKRAPEDARGYSNRAAALAKLMSFPEAIADCNKAIEKDPNFVRAYIRKATAQIAVKEYASALETLDAARTKDAEVNNGSSAREIDQLYYKASQQRFQPGTSNETPEETYQRAMKDPEVAAIMQDPVMQSILQQAQQNPAALQEHMKNPEVFKKIQTLIAAGIIRTGR
For B2, the binding result in assay [3] was “no binding”.
